pKd: −log10 of the molar value. The exact form of at least one protein or probe is not confirmed. Where a protein sequence is shown, tags need not be part of it.
Molecular target: T1, RBM15 RRM2 (UniProt Q96T37)
T1 sequence (looked up, limits assumed): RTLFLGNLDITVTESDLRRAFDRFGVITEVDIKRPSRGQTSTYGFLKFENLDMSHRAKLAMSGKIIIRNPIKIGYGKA
Experiment: filter binding

Sequence	pKd
GGUUCUUGAAAAGAGGACC [FIRRE RRD stem-loop (19nt)]	< 5.82
GGCCAACACUCUGGCCCAUCGGGGUGACGGCC [XIST A-repeat stem-loop (32nt)]	< 5.82

— paper doi:10.1101/2023.07.20.549950
